Measured values taken from PubChem BioAssay AID256 (DTP/NCI, 2004).
The list does not hold the whole screen: it is rich in T/C values a quarter to a half above the control, in often repeated tests (any T/C) and in doses without a T/C. Other doses and runs of a compound stand elsewhere. T/C: endpoint of the treated group in % of that of the vehicle group. Some entries give survivors of the animals treated and no T/C: the source holds a T/C of zero for them, seemingly a mark for toxic or unscored doses. Some doses without a T/C left all or most animals alive at the check, yet need not have been tolerated: the source hardly ever lists a survival T/C far under the control, and the zero likely stands for such cases as well. Counts of survivors are from the toxicity check (mostly the fifth day) where no day follows; animals may have died later. Schedule codes are those of the source, taken here to give the interval after Q, in days (D) or hours (H), and the number of doses after X. For survival time, the PubChem record calls one and a half times the control and up active, and a quarter to a half above the control has no call in these data; cut-offs in other NCI protocols can differ.

Test system: CD2F1 mice, L1210 leukemia ip, survival T/C
Assay: NCI In Vivo Anticancer Drug Screen. Data for tumor model L1210 Leukemia (intraperitoneal) in CD2F1 (CDF1) mice
Conditions: higher T/C = longer survival
Procedure, shortened: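 Ratio T/C, where T is the treated-group value and C the vehicle-dosed control value, from mice implanted with a transplantable tumor.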

[1] = T/C endpoint: mean survival time, dose: 150.0 mg/kg/injection, schedule: Q01DX001 (ip), vehicle: saline
[2] = T/C endpoint: mean survival time, dose: 300.0 mg/kg/injection, schedule: Q01DX001 (ip), vehicle: saline
[3] = T/C endpoint: mean survival time, dose: 200.0 mg/kg/injection, schedule: Q01DX009 (ip), vehicle: saline with Tween-80
[4] = T/C endpoint: mean survival time, dose: 400.0 mg/kg/injection, schedule: Q04DX003 (ip), vehicle: saline with Tween-80
[5] = T/C endpoint: mean survival time, dose: 400.0 mg/kg/injection, schedule: Q01DX009 (ip), vehicle: saline with Tween-80

With `CN(C)/C=C/C#N` the survivor count [1] was 0 of 6 and the survivor count [2] was 0 of 6.

In the case of `CC(C)=[C-]N(C)C.[C-]#[O+].[C-]#[O+].[C-]#[O+].[C-]#[O+].[C-]#[O+].[Mn]`, the survivor count (T/C endpoint: mean survival time, dose: 50.0 mg/kg/injection, schedule: Q04DX002 (ip), vehicle: saline with Tween-80) is reported as 0 of 3.

With `C[N+](C)(C)CC(O)c1ccccc1` (stereo not drawn) the survivor count [3] was 3 of 6 and the survivor count [4] was 5 of 6.

In the case of `O=C1NC(=O)C2CC(Br)C(Br)CC12` (stereo not drawn), the survivor count (T/C endpoint: mean survival time, dose: 40.0 mg/kg/injection, schedule: Q01DX001 (ip), vehicle: saline) is reported as 0 of 6, the survivor count (T/C endpoint: mean survival time, dose: 75.0 mg/kg/injection, schedule: Q01DX001 (ip), vehicle: saline) is reported as 0 of 6 and the survivor count (T/C endpoint: mean survival time, dose: 80.0 mg/kg/injection, schedule: Q01DX001 (ip), vehicle: saline) is reported as 0 of 6. For the same compound, the survivor count [1] was 0 of 6 and the survivor count [2] was 0 of 6.

With `COc1cc(OC)c(NC(=O)Nc2cc(C)on2)cc1Cl` the survivor count (T/C endpoint: mean survival time, dose: 50.0 mg/kg/injection, schedule: Q01DX009 (ip), vehicle: saline with Tween-80) was 3 of 3, the survivor count (T/C endpoint: mean survival time, dose: 100.0 mg/kg/injection, schedule: Q01DX009 (ip), vehicle: saline with Tween-80) was 3 of 3 and the survivor count [3] was 3 of 3.

With `Cc1cc(C)c(S(=O)(=O)F)cc1C(=O)O` the survivor count (T/C endpoint: mean survival time, dose: 400.0 mg/kg/injection, schedule: Q01DX001 (ip), vehicle: saline with Tween-80) was 3 of 6 and the survivor count [5] was 1 of 3.

In the case of `CC(C)C(NC(=O)OC(C)(C)C)C(=O)ON1C(=O)CCC1=O` (stereo not drawn), the survivor count [4] is reported as 2 of 6.

For `O=P(N1CCOCC1)(N1CC1)N1CC1`, the T/C (T/C endpoint: mean survival time, dose: 6.25 mg/kg/injection, schedule: Q01DX009 (ip), vehicle: saline) was 132 % of control.

For `O=C(Nc1ccccc1CCl)Nc1ccccc1CCl`, the survivor count (T/C endpoint: median survival time, dose: 800.0 mg/kg/injection, schedule: Q01DX005 (ip), vehicle: saline with Tween-80) was 3 of 5.

`NCCCCOc1ccc([N+](=O)[O-])cc1Cl` was tested, and the survivor count [2] was 3 of 6.

In the case of `O=C1C=CC(n2cc(F)c(=O)[nH]c2=O)O1` (stereo not drawn), the T/C (T/C endpoint: median survival time, dose: 12.5 mg/kg/injection, schedule: Q01DX009 (ip), vehicle: saline with Tween-80) is reported as 139 % of control, the T/C (T/C endpoint: median survival time, dose: 12.5 mg/kg/injection, schedule: Q01DX009 (ip), vehicle: saline) is reported as 125 % of control and the T/C (T/C endpoint: median survival time, dose: 25.0 mg/kg/injection, schedule: Q01DX009 (ip), vehicle: saline with Tween-80) is reported as 145 % of control. For the same compound, the T/C (T/C endpoint: median survival time, dose: 25.0 mg/kg/injection, schedule: Q01DX009 (ip), vehicle: saline) was 141 % of control and the T/C (T/C endpoint: median survival time, dose: 50.0 mg/kg/injection, schedule: Q01DX009 (ip), vehicle: saline with Tween-80) was 142 % of control.

With `c1cnc2ncncc2n1` the survivor count [5] was 0 of 6.

In the case of `COc1cc(N=Nc2ccc(C(=O)O)cc2)ccc1N(CCCl)CCCl`, the T/C (T/C endpoint: mean survival time, dose: 100.0 mg/kg/injection, schedule: Q04DX003 (ip), vehicle: Klucel (hydroxypropylcellulose) (HPC)) is reported as 132 % of control, the survivor count (T/C endpoint: mean survival time, dose: 200.0 mg/kg/injection, schedule: Q04DX003 (ip), vehicle: Klucel (hydroxypropylcellulose) (HPC)) is reported as 5 of 6 and the survivor count (T/C endpoint: mean survival time, dose: 400.0 mg/kg/injection, schedule: Q04DX003 (ip), vehicle: Klucel (hydroxypropylcellulose) (HPC)) is reported as 4 of 6.
